# Assay results from publication PMC2949623.
# Protein sequences, listed by entry. Tags and fused reporters are not part of them. Lines headed by an entry give the natural chain unless they say otherwise; changes in a name come on top. Chains listed by the source or under a name are the forms on record and can include a tag or linker.
# p37AUF1-eYFP (Q14103-4, form named): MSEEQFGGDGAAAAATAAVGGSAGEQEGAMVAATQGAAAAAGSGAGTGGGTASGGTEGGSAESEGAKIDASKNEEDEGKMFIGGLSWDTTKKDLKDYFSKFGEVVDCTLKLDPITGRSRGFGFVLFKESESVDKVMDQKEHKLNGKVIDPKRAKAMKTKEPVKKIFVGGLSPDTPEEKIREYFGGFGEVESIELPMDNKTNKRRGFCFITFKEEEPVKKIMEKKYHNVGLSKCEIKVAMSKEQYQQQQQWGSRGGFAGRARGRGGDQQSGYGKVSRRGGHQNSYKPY
# UniProt Q15717: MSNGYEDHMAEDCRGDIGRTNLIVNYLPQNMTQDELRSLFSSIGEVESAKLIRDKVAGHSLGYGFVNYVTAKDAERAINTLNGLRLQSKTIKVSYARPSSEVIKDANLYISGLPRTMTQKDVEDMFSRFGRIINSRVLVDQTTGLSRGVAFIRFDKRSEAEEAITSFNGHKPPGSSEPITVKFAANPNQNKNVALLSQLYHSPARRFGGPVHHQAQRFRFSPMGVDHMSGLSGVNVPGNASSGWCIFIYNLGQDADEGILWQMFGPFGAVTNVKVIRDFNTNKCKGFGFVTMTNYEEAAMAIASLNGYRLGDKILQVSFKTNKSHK
# Results are given in words; binding and its absence hold for the method and conditions named. Binding seen in cells or lysates may run through a third protein. Some results given as binding are weak or reduced against the parent protein; the word gives no strength. For part of these data: Sequences can lack the tags named with a protein.
# Legend:
# [1] = target: p37AUF1-eCFP (UniProt Q14103); assay: FRET or BRET; traditional FRET between eCFP and eYFP tagged proteins transiently transfected into DDT1-MF2 cells; FRETc images of live or fixed cells, room temperature; control cells, 0.5 mM sodium arsenite 30 min, or 75 nM anisomycin 24 h
# [2] = target: T1, KSRP-eCFP (UniProt Q92945); assay: as above
# T1 sequence: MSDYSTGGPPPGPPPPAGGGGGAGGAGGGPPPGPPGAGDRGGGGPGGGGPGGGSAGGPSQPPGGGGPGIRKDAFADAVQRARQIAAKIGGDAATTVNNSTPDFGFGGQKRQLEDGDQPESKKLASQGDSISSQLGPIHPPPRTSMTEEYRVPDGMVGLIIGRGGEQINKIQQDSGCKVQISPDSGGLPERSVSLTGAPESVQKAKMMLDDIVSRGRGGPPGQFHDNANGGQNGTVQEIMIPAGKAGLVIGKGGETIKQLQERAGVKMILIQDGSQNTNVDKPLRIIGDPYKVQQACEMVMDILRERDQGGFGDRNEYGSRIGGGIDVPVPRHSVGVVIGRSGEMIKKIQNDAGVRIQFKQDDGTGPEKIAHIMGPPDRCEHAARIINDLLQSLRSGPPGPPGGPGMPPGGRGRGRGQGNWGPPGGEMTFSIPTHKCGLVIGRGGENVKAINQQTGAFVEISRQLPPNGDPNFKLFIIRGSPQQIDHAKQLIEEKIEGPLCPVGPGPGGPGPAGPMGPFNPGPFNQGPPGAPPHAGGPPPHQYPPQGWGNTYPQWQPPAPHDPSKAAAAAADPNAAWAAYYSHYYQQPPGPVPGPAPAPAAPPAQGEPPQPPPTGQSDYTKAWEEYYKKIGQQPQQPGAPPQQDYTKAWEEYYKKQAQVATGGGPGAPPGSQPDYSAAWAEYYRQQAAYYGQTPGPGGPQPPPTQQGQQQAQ
Substance,binding [1],binding [2]
HuR-eYFP (from UniProt Q15717 1-326),binds,binds
p37AUF1-eYFP (from UniProt Q14103-4 1-287),,binds
